Our source for the binding signal (log2 relative supershift) values is article PMC12370185.

The list shows a part of the results. For part of these data: At the low end of the ranking the order means little.

What all share (conditions): 10 mM Tris-Cl pH 7.5, 50 mM NaCl, 1 mM DTT, 0.25 mg/ml BSA, 2 mM MgCl2, 0.025% Nonidet P-40, 5% glycerol; 28 nM nucleosome library; 10 min on ice then 30 min …; high values mean tight binding; double strand, one strand shown
The test system of experiment [1] is KLF4 + histone octamer. The experiment in a line: EMSA with sequencing.
The test system of experiment [2] is SOX2 + histone octamer. The experiment in a line: EMSA with sequencing. On the technique in general: A gel shift assay detects complexes by their altered migration in electrophoresis.
Experiment [3] relates to c-MYC + MAX + histone octamer. The experiment in a line: EMSA with sequencing.
For experiment [4], the system named is OCT4 + histone octamer. The experiment in a line: Pioneer-seq (competitive nucleosome EMSA with sequencing).

For “GATGGACCCTATACGCGGCCCCTACAAGCACTGGTCTTGATTATTATCATCATAACTCGTGAGTGGCATGTCAGGACTTGAGTCCAGGCCATCTCACTCTAACTCCAAGTGTTTCCACTATGCCACACCCCCAGCGTGGTAGCACAGATGGCTCTGGTATAAGGAACTGTTTGAGATCAGCAGAGTGAGTTTGTCTGGATCTCACCAGCCTGCCAGTCGGATAGTGTTCC”, the binding signal (log2 relative supershift) was 0.522 in experiment [1], 0.469 in experiment [2], 0.438 in experiment [3] and -0.0202 in experiment [4].
For “GATGGACCCTATACGCGGCCTGAGGCCAGAAGGGGCCACTTTGGGCTAATTAGAACCACTGAGCAGTCTGAAGACTTCAATTATGCACATGGCAGGACAGTGGGTGCCTCCCCACGTGGGTGGGAGATTACTGCCGCTGGCCGGGCTGTCGCTCTCATGCAAAATATTAAGAAAAGGCAGGGCCCACAGCAATTCTCATCTGGCTGAAATTGCCAGTCGGATAGTGTTCC”, the binding signal (log2 relative supershift) was 1.68 in experiment [1], 0.149 in experiment [2], 0.491 in experiment [3] and -0.328 in experiment [4].
For “GATGGACCCTATACGCGGCTTTGTGTGGATGTGGTTGGTCAGAAGGCTTTGTGTGCACTGTGACATCTTTATGCTGCAGATGCCAAGATCACAGGGTCCACACAGAGCAGTTCATTTCACACAGTGGGAAATGATGCGTGTGTGTGTGTGGGTGGGTGTGTGTGTGTGTTTTAAAAAACCTAAACAGAGCAACACTGTTCTGTGCACTCATGCCAGTCGGATAGTGTTCC”, in that order: 1.57, 1.84, 0.455 and -0.145.
Consider “GATGGACCCTATACGCGGCCTGTCACTTTGTTGACGTTCCAGAGCCAGGCCTGGCTGCTGCGGCTCCCAGACCCGGTCCCAGGCATGTTGGGACACGGGCCGGCTGTGCTCTGTGGAATGTTCCCAGGCAGCAGGTCCACTTCCTGGGCTGCAGCCCTGGGTTCTGCTGATACCCCTTCTGTAGCAGACTTCTCCTGCCCTGTCCTCCAGTGCCAGTCGGATAGTGTTCC”, for which the binding signal (log2 relative supershift) in experiment [1] is 0.846; in experiment [2] it was 0.017; in experiment [3], 0.281; in experiment [4] it was -0.482.
The matching figures for “GATGGACCCTATACGCGGCTGCCAGGTGGTAATGAGCTCTGTGCACCCTACCTCAACTCCCTCAGCATCAGTGGAGACCACATGGGGAGCCAGGACTTCCACCCCCACCCCACCATAACTGGGTGCGTCTCCCCTTTCCCACCGGGGGTTGGATCAACGTTGGCCTAGAGATGAATCAGAAATCTTAGCAATGCCCAGTGGTTAAAAAGCTGCCAGTCGGATAGTGTTCC”: 1.66, 1.27, 0.374 and -0.341.
In the case of “GATGGACCCTATACGCGGCGTTTTTGTTGTTGGACTAAGATTGTATGTGACAGTGTTTGAGATTGTGCATGACAGTGTGTGTGATTATGTGAGACTGAGGGAGATGGTGTGACTTAGCACTGTATGTCATCCCGACAGTGAGTGTGACAGTGTGACTGAGAATGGCCTTATATGACCCATTGTGAGAGCAGGGCGGGCTACAATGTGGGGTGCCAGTCGGATAGTGTTCC”, the binding signal (log2 relative supershift) in experiment [1] is 2; in experiment [2], 1.85; in experiment [3], 0.448; in experiment [4], -0.69.
For “GATGGACCCTATACGCGGCAGAAAGCATCCGGTAATGTCTGTCCCTTATCTGAACAGCCCTCTCTATACCTTGTCACTCACTGCTCCCCTGACTTGCTTGATGTGACTTGGTTCTCTGTGTCAATGATAGGCTCTTGTATGTGACTGGCAACACCCACATTCATATGAAAATCACTCCCTCTGCTATTTGAACTTTCATCCTGTGATGAATGCCAGTCGGATAGTGTTCC”, in that order: 1.41, 0.822, 0.00373 and -0.279.
For “GATGGACCCTATACGCGGCAAATGGGAGTATTTAGCTGGTATATGACCTTCTTCTAGGAACACTTGACTGGTAAGGCAAAAATGCCTCAAGGGAGCATGTGCACAGTTTCAGTAAACACTGTGCATGTGGCCCCTCCCAAGTGCTGGCAGGCTACTGTACATGTGGACAGTCCACCCCAAGGGAAGAATCAGGAGAAAGGATGCAACCCTTGCCAGTCGGATAGTGTTCC”, in that order: 2.31, 0.0232, 0.401 and -0.218.
The matching figures for “GATGGACCCTATACGCGGCGGAAACAAGGCATTGAGACTGGTTCTAATCCACTGTCAGTTGGGTGAGGACTCAGAGCAAGCCATGACTTGCAGCTCAGACCTTCTGGCTCAATGCAGAGAGGCCCGAGTTGGAGGAACAGGGTACTAAGTGATGGGATGGAGGAATGAGGGCAGTGGGGAGCCTAGCGAGGCAGCTTGACAGGGAAAATATGCCAGTCGGATAGTGTTCC”: 1.8, 0.112, 0.12 and -0.251.
On to “GATGGACCCTATACGCGGCACTCACTACACACCCATGTACATACCCCCCATGCACACATGCATACACACACACAGGTACATCCACAATACACCCACATACGCATATGTATGCACATCCACACACACTACACACCCACACACGTGCCCAACCCCCATGTACATGCATGCACCTACACACCCATTCACACACCCTCATACATACACACATTCTGCCAGTCGGATAGTGTTCC”, for which the binding signal (log2 relative supershift) was 2.48 in experiment [1], 0.207 in experiment [2], 0.775 in experiment [3] and -0.247 in experiment [4].
The matching figures for “GATGGACCCTATACGCGGCGAGGCAGGTCCTGACAGGCCTGATTCTTGGGAGGATGGATGGCTCCAATTCTGGCCACTGTGACTGTGCCTGGGCCTGTTGGAGCTTGTTAGCTACCCCACCTCCCCTGAGCCAGGAGTCCGAGACTCAGGATGGGTAGGTGCTGGCTAGATACTAGTGAACTGAATAACCTCCCCCTGCAAGCTGCCCCCTGCCAGTCGGATAGTGTTCC”: 2.1, 0.0962, 0.342 and -0.687.
The matching figures for “GATGGACCCTATACGCGGCCCGTTTTCACGCTGTTCATAAAGACATACCCAAGACTGGGCAATGTACAAAAGAAAGAGATTTAATGGACTCACAATTCCACGTGGATGGGGAGGCCTCACAGTCATGGCAGAAGGTGAAAGGCACATCTCACATGGCGGCAGACAAGAGAAGAGTGACAGCCAAGCGAAACGGGTTTCCCCTTATAAAACTGCCAGTCGGATAGTGTTCC”: 1.58, 1.24, 0.444 and -0.154.
The matching figures for “GATGGACCCTATACGCGGCTTGCAGTCATTCTGTCATGTCACCCACTGAGGAGACTGCACACAAACTGCTTGAGGACAGGAGCTGTGTTATGCACACCTTTTGTCACTCATGACAGCCTGTTAACACACTGCCAGACACATAGCCAGTGCTCAATTACACGGCTGAGTAGGACAGACCACACAGTTATTACCCCCTTTGAGCACACCATTTGCCAGTCGGATAGTGTTCC”: 0.238, 0.085, 0.347 and -0.799.
In the case of “GATGGACCCTATACGCGGCGCTGCAGTTTAAGCCAAGATTGTGAATCCGAAGTCTTCTTTGACCACTGATTGTCGTGTAAAGCACAGCACACTGTAGAAGCAACATTGAGGTCACATGTTTTTCTGATTAACATATCCACCCAAGCTAACTTGATCTTACTTGCATTTACAAAACACTGTGTACAGATAGATAAAAGACCTCTAACTATTTGCCAGTCGGATAGTGTTCC”, the binding signal (log2 relative supershift) is 0.0732 in experiment [1], 1.46 in experiment [2], 0.0563 in experiment [3] and -0.0168 in experiment [4].
The matching figures for “GATGGACCCTATACGCGGCCAAAAGGGGCTGTGGTATCACAGCAGCCCATGAATACATGAGGCATGGTCATGTATAGAAGGACCTCCAGCCCTGTCAGTGAAGGCTGCAAGGAAGGGTGATGGAGCTGCTGCTGCTTAAACAAGAGAAATACTGAGTGCTTTCCTTGCACATATCATTGGCATTTGCCTGCCTCCACATTTATTTCATCCTGCCAGTCGGATAGTGTTCC”: 1.27, 0.184, 0.0546 and -0.398.
The matching figures for “GATGGACCCTATACGCGGCTGATCAGAGCTGTAAAGGTTTCTAAACAATCAGAGGCCTTTGATATGGTTGCCAACACCCACATTTTCCATTCTGGGAACAATGCCATCAAGGGCCACAGCCTCAGTCCCCCACCTAAGTGAGGAAGTGTCTGCTGGTTGCTGGTAGGAGCAGGTCCTGTGAGGGCAAGGGTCAGAAGGACAGAGGAGTCTTGCCAGTCGGATAGTGTTCC”: 1.55, 0.815, 0.691 and -0.229.
The matching figures for “GATGGACCCTATACGCGGCAAGTGTCACACATTTTTACACCTGCCTGGGGTGCCTTTCCCTCCCTCCTCCCTTGACCCTCTGAAAAACACCACCTTCCAGTCCTTCCCCGCCAATTGCTCCATGACATGTCTCTTCAAGCCCTGAGTCAGTGAACCGTGCTACATGGTCTTGCATTGTACACTTGTAACCATTATCATCCCTATGACACCTGCCAGTCGGATAGTGTTCC”: 2.19, 0.515, 0.737 and -0.521.
Turning to “GATGGACCCTATACGCGGCATTAGGTTTCAATGAGACCATAAGGGTGAGGCCTGCTATGGTCTGAATGTTTGTGTTCCCCCCAAATTCATATGCTGAAACCCAGTCACTAGTATGGTGACAGTAGGAGGTGGGGTCTTTGGGAGATGATTAGGTCATGAGAGCAGAGAGCTCATGAATAGGACTGGTGCCCTTATAAAAGAGGCCTCAGATGCCAGTCGGATAGTGTTCC”, the binding signal (log2 relative supershift) in experiment [1] was 2.25; in experiment [2] it was 1.46; in experiment [3], 0.564; in experiment [4] it was -0.555.
“GATGGACCCTATACGCGGCTATTTCCCTCTTCTATTCACTCTTCAATTCACTATAATCTGACTTCCACCCTCCACTGAAAACTGCTTTTGTCAAGGTCAGGTCATCTGTACTCTCCATGTGCACATCTAGTGGATACTTGACCTTGTGGCAGCATTTGACAGTTTGCCCCTCCCTCCTGGAATCTTGCTCCCGGCTCCTATGACACCATGTGCCAGTCGGATAGTGTTCC”: the binding signal (log2 relative supershift) is 1.81 in experiment [1], 1 in experiment [2], 0.784 in experiment [3] and -0.147 in experiment [4].
The matching figures for “GATGGACCCTATACGCGGCTCTGACCCAACCTCAGTTTTAGAAAGCCATGTGCATCAGCTTCAGGATGGAATGTTCTCAGCCTGCCTGCCTCACCTCCCTGTGGCAGCCCAACTGCCTTGAATCTGGTAGTTCTTGCATTCTGGTCCAGCCCTTCTCCCCTCCCCTTACTCAGCAGTGGCACACCTTTCTCAATAAAAGACTCAGTTCAATGCCAGTCGGATAGTGTTCC”: 2.29, 1.06, 0.589 and -0.775.
As to “GATGGACCCTATACGCGGCGCATGCACTCACATGATTGAATGTGCACACACCCAGAGATGCACACACACACATCTAATCAGATGTGCACCCCCACACAGATATGCACATGTGCACACCCACAGGATCGAATGTGCACGCCTAATCAGATGTGTACACCCCTCCCACATATGTACACATGCACACTAACACAAATGTGTACACACCCGCAGTGCCAGTCGGATAGTGTTCC”, the binding signal (log2 relative supershift) in experiment [1] is 2.24; in experiment [2], 0.275; in experiment [3], 0.837; in experiment [4], -0.0394.
